Measurements reported in PubChem BioAssay AID1259424 (University of Nebraska Medical Center, 2018)
This is an unselected part of about 14,000 deposited reagents. 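Higher correlation or smaller distance means closer resemblance to KSR1 loss; control wells, including KSR1 knockdowns, recur on many plates.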 Not all columns of the deposit are shown. Not stated in the record: the time to read-out.

Aim: 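Seek colon cancer survival genes behaving like KSR1, using a six-gene signature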 (primary screen)
System: human HCT116 colon cancer cells
Reagent: siRNA pool against human genes, 50 nM
Detection: 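Six signature mRNAs by branched-DNA multiplex assay, scaled to two housekeeping genes and non-targeting median, log2; matched to mean KSR1 knockdown profile by Pearson correlation and euclidean distance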
Direction: mean correlation with KSR1 profile: higher = expression change more like KSR1 knockdown; mean distance from KSR1 profile: higher = expression change less like KSR1 knockdown

{"Gene": "RGS6", "mean correlation with KSR1 profile": 0.356, "mean distance from KSR1 profile": 2.16}
{"Gene": "LGALSL", "mean correlation with KSR1 profile": 0.0639, "mean distance from KSR1 profile": 1.99}
{"Gene": "TMEM38A", "mean correlation with KSR1 profile": -0.782, "mean distance from KSR1 profile": 2.48}
{"Gene": "RPL27A", "mean correlation with KSR1 profile": 0.118, "mean distance from KSR1 profile": 2.7}
{"Gene": "ATG2B", "mean correlation with KSR1 profile": -0.317, "mean distance from KSR1 profile": 1.38}
{"Gene": "PLEKHG1", "mean correlation with KSR1 profile": -0.666, "mean distance from KSR1 profile": 4.59}
{"Gene": "ATG4B", "mean correlation with KSR1 profile": -0.0465, "mean distance from KSR1 profile": 2.5}
{"Gene": "ZNF768", "mean correlation with KSR1 profile": -0.0938, "mean distance from KSR1 profile": 2.27}
{"Gene": "NUDT16L1", "mean correlation with KSR1 profile": 0.927, "mean distance from KSR1 profile": 0.68}
{"Gene": "TLN1", "mean correlation with KSR1 profile": 0.375, "mean distance from KSR1 profile": 2.7}
{"Gene": "EPHB6", "mean correlation with KSR1 profile": 0.338, "mean distance from KSR1 profile": 3.64}
{"Gene": "RMDN1", "mean correlation with KSR1 profile": -0.114, "mean distance from KSR1 profile": 1.79}

Targets above whose target name begins with A or a:
{"Gene": "ATG2B", "mean correlation with KSR1 profile": -0.317, "mean distance from KSR1 profile": 1.38}
{"Gene": "ATG4B", "mean correlation with KSR1 profile": -0.0465, "mean distance from KSR1 profile": 2.5}
